According to patent US5260275A, “Hypoglycemics” (Amylin Pharmaceuticals, Inc., priority 1990, dated 1993):

System: polyclonal rabbit antiserum specific for amylin
Assay: Interference with the amylin radioimmunoassay displacement curve
Details: for Effect on the 125I-human amylin displacement curve: glibenclamide 1 μM, metformin 100 μM, tolbutamide 100 μM

| SMILES | Effect on the 125I-human amylin displacement curve | Effect on the hamster amylin displacement curve (glucagon 5 μM, somatostatin 100 nM) |
| --- | --- | --- |
| COc1ccc(Cl)cc1C(=O)NCCc1ccc(S(=O)(=O)NC(=O)NC2CCCCC2)cc1 [glibenclamide] | no effect | – |
| C[C@H](N)C(=O)NCC(=O)N[C@H]1CSSC[C@@H](C(=O)O)NC(=O)[C@H](CO)NC(=O)[C@H]([C@@H](C)O)NC(=O)[C@H](Cc2ccccc2)NC(=O)[C@H]([C@@H](C)O)NC(=O)[C@H](CCCCN)NC(=O)[C@H](Cc2c[nH]c3ccccc23)NC(=O)[C@H](Cc2ccccc2)NC(=O)[C@H](Cc2ccccc2)NC(=O)[C@H](CC(N)=O)NC(=O)[C@H](CCCCN)NC1=O [Somatostatin] | – | no effect |
| CCCCNC(=O)NS(=O)(=O)c1ccc(C)cc1 [tolbutamide] | no effect | – |
| CN(C)C(=N)N=C(N)N [metformin] | no effect | – |
